Results published in US9393249B2, “Antimicrobial composition” (INSTITUTE OF TECHNOLOGY SLIGO, priority 2008, dated 2016).
At least one compound was matched to its structure with a doubt left.

System: S. aureus NCIMB 9587
Assay: Checkerboard synergy test
Format: cell-based, Staphylococcus aureus
Conditions: MIC as two-fold dilution fraction of each agent's final dilution (A^3IS 3%; antibiotics 1:100 to 1:3,200,000); overnight 35° C.
Method: Stock solutions were prepared according to published standards (CLSI (Clinical and Laboratory Standards Institute): Performance Standards for Antimicrobial Susceptibility testing. Fifteenth Informational Supplement. CLSI document M100-S15. Pennsylvania USA 2005, 19087-1898)
Synergy tests were performed in 96-well microtiter plates containing the A^3IS (from Example 3)/antibiotic combinations in two fold dilutions dispensed in a checkerboard fashion on the day of the assay. Each well contained 0.1 mL of A^3IS/antimicrobial combinations. A suspension of S. aureus test culture was prepared from an overnight broth culture to yield a final inoculum of approximately 3×10^5 to 5×10^5 CFU/mL. Twenty microliters of this suspension was added to all but the sterility control wells. MICs were read after overnight incubation at 35° C. Growth and sterility controls were included in each plate. Each isolate was tested twice. Growth was determined by visually examining each well for evidence of turbidity.
For the first clear well in each row of the microtiter plate containing both antimicrobial agents, the fractional inhibitory concentration (FIC) was calculated as follows: FIC of drug A (FICA)=MIC of drug A in combination/MIC of drug A alone, and the FIC of drug B (FICB)=MIC of drug B in combination/MIC of drug B alone.

CCC[C@@H]1C[C@@H](C(=O)N[C@@H]([C@H]2O[C@H](SC)[C@H](O)[C@@H](O)[C@H]2O)[C@H](C)Cl)N(C)C1 [Clindamycin]
MICs for A^3IS & antibiotics on S. aureus NCIMB 9587: ½
